Results taken from PMC3092770.
Results are given in words; binding and its absence hold for the method and conditions named. For part of these data: Binding can be weak; no strength is given. Sequences can lack the tags named with a protein. For part of these data: In cells and extracts the contact can be indirect.

T1: HA-tagged Aurora-A(1–362) (human) (UniProt O14965)
T1 sequence: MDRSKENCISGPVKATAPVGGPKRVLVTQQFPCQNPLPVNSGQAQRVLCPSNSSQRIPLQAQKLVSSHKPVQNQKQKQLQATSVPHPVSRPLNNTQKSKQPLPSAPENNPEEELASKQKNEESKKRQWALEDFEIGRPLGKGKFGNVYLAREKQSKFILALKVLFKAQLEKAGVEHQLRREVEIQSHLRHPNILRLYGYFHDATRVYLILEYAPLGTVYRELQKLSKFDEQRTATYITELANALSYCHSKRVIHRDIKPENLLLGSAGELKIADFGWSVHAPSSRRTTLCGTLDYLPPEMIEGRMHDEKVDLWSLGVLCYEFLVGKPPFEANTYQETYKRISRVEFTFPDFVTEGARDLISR

T2: HA-tagged Aurora-A(1–131) (human) (UniProt O14965)
T2 sequence: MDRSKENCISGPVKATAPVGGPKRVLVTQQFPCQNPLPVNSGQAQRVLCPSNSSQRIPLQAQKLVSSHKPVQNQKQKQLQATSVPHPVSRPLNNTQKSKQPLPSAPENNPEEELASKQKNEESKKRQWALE

B1: His-tagged kinase-inactive Aurora-A mutant protein (Aurora-A-K162I) (enzyme, UniProt O14965 1-403)
chain: MDRSKENCISGPVKATAPVGGPKRVLVTQQFPCQNPLPVNSGQAQRVLCPSNSSQRIPLQAQKLVSSHKPVQNQKQKQLQATSVPHPVSRPLNNTQKSKQPLPSAPENNPEEELASKQKNEESKKRQWALEDFEIGRPLGKGKFGNVYLAREKQSKFILALIVLFKAQLEKAGVEHQLRREVEIQSHLRHPNILRLYGYFHDATRVYLILEYAPLGTVYRELQKLSKFDEQRTATYITELANALSYCHSKRVIHRDIKPENLLLGSAGELKIADFGWSVHAPSSRRTTLCGTLDYLPPEMIEGRMHDEKVDLWSLGVLCYEFLVGKPPFEANTYQETYKRISRVEFTFPDFVTEGARDLISRLLKHNPSQRPMLREVLEHPWITANSSKPSNCQNKESASKQS

Assays:
[1] = target: T1, HA-tagged Aurora-A(1–362) (human); experiment: co-IP; HEK293T cells co-transfected with FLAG-tagged PUM2 (wild type or Δ434–740) and HA-tagged Aurora-A (whole or fragments); immunoprecipitation with anti-HA antibody, immunoblot with anti-FLAG
[2] = target: T2, HA-tagged Aurora-A(1–131) (human); experiment: as above
[3] = target: GST-PUM2 fusion protein (human); experiment: pull-down; GST-PUM2 (40 µg) or GST on glutathione-Sepharose beads incubated with 100 µg purified His-tagged Aurora-A (wild type or K162I) in binding buffer at 4°C overnight; immunoblot with anti-His; both purified

Row | Molecule | binding [1] | binding [2] | binding [3]
1 | FLAG-tagged PUM2 (Human Pumilio homology protein 2), wild type | no binding | no binding | 
2 | B1 |  |  | binds weakly
